According to PMC11582362:

Biological target: T1, full length ADAR1 p110, wild type (FLAG-tagged and HA-tagged copies) (human) (UniProt P55265)
T1 sequence: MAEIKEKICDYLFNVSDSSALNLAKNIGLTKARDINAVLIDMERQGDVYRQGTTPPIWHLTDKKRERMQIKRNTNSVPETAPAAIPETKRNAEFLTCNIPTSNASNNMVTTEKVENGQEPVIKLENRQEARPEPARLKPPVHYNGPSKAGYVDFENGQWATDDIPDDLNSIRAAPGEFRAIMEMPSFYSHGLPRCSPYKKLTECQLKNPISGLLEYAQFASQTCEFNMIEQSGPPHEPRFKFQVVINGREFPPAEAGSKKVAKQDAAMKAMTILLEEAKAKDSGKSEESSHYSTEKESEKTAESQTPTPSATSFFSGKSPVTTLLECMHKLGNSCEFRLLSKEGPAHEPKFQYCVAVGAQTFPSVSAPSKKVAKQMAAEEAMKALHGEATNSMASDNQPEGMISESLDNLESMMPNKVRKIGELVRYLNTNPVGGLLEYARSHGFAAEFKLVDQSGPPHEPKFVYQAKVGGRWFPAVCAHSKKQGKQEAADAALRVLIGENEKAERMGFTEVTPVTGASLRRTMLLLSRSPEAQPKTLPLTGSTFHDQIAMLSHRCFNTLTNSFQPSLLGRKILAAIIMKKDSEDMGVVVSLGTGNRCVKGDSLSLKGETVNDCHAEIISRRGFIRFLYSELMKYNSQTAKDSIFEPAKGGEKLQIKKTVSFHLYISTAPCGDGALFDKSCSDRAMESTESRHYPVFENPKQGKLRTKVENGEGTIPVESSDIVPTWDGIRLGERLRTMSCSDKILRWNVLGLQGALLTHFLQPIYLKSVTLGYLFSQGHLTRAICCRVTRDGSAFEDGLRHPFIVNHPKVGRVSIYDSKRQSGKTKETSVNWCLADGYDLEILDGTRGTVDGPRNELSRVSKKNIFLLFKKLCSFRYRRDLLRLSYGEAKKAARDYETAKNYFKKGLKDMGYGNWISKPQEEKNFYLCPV
Experiment: co-IP; FLAG- and HA-tagged ADAR1 variants co-expressed in HEK293T cells; lysate treated with RNase A; FLAG M2 magnetic beads, 2 h at 4 °C, IP buffer 25 mM Tris-HCl pH 7.4, 150 mM NaCl, 1 mM EDTA, 1% NP-40, 5% glycerol; western blot with anti-HA

## HA-tagged ADAR1 without a deaminase domain (human) (domain or fragment)
  binding: binds

These are yes or no findings as the source states them, for the method shown. Binding seen in cells or lysates may run through a third protein. A result given as binding can be weak or reduced; the word gives no strength. Where a sequence is shown, tags or fusion partners need not be part of it.
